{
  "source": "patent US20060003988A1",
  "about": "“Compounds capable of inhibiting immunocyte-related allergic immune reactions” (priority 2002, published 2006)",
  "key": {"FAK": {"tested_on": "FAK", "details": "PHA-stimulated T cells; 0.1 μM to 1.0 μM"}, "ICAM-1": {"tested_on": "ICAM-1", "details": "for cell fluorescence intensity, ICAM-1: endothelial cells"}, "[1]": {"tested_on": "IL-5 production from peripheral blood T cells", "test": "IL-5 production from peripheral blood T cells (ELISA)", "format": "cell-based, human", "details": "5 μM; five independent donors", "procedure": "The antibody-coated plates and T cells were prepared similarly as in Example 1 except that the OKT3 concentration was 0.5 μg/ml. The cytokine production by T cells was analyzed in triplicate using 96-well flat-bottomed plates by the same method employed in the T cell proliferation analysis described above. After culturing for 24 hours, the culture supernatant was tested using ELISA kit (IL-2: Biosource International, Camarillo, Calif.; IFN-γ: R&D systems, Minneapolis, Minn.) to quantify IL-2 and IFN-γ.\nTh2 type CD4 T cells play an important role in allergic diseases. Therefore, the present inventors analyzed the effects of ebastine on Th2 type cytokines (IL-4, and IL-5) induced by the various costimulations described above. This analysis was performed similarly as in Example 2 except that ELISA (IL-4: Biosource International, Camarillo, Calif.; IL-5: R&D systems, Minneapolis, Minn.) was used to quantify IL-4 and IL-5."}, "PHA-stimulated T cells": {"tested_on": "PHA-stimulated T cells", "test": "Transendothelial migration of PHA-stimulated T cells through ECV304 monolayer", "format": "cell-based, human", "procedure": "In order to determine the effect of ebastine on T cell permeation, the present inventors analyzed vascular transendothelial migration of PHA-stimulated T cells in vitro. Since fresh resting-stage T cells hardly migrate by permeating a monolayer of endothelial cells, these T cells were activated using PHA (10 μg/ml) prior to performing transendothelial migration analysis.\nSpecifically, the analysis of transendothelial migration was performed by slightly modifying a known method (Iwata S, Yamaguchi N, Munakata Y, Ikushima H, Lee J F, Hosono O, Schlossman S F, Morimoto C. “CD26/DPPIV differentially regulates the chemotaxis of T cells and monocytes toward RANTES. Possible mechanism for the switch from innate to acquired immune response.” Int Immunol. 11:417-426, 1999). Human endothelial cell strain ECV304 was obtained from the American Tissue Culture Collection (ATCC; Rockville, Md.) and cultured for 48 hours on Transwell cell culture inserts (Corning Costar, Cambridge, Mass.) with a pore size of 3.0 μm. The cells were loaded onto a 24-well plastic plate for cell culture (FALCON), and mixed with H1 blockers at various concentrations using Transwell assay medium (RPMI1640 medium, BSA 0.6%, Penicillin G/Streptomycin 1%, HEPES 50 mM). Two-hundred μl of PHA-stimulated T cells (1×10^7/ml) were then placed in the upper chamber and 600 μl of assay medium was placed in the lower chamber, and migration was performed for eight hours at 37° C. under 5% CO2. After recovery of the cells, the number of cells was counted for one minute by flow cytometry (FACSCalibur, Nippon Becton-Dickinson, Tokyo, Japan)."}, "T cells": {"tested_on": "T cells", "test": "T cell proliferation (3H-thymidine incorporation) via different costimulation pathways", "format": "cell-based, human", "excerpt": "The first pathway was PMA, the second pathway stimulation on CD28 that is one of the representative T cell costimulation molecules, and the third pathway stimulation on CD26 that is expressed on CD4^+ memory T cells. The simulation on CD3 was applied together with all of these stimulations. […] OKT3 was purchased from the American Tissue Culture Collection (ATCC, Rockville, Md.), while 4B10 and 1F7 were purified from mouse ascites of hybridomas established in the present inventors' laboratory ([…] et al., 1991, supra; Morimoto C et al., 1989, supra). Specifically, human peripheral blood mononuclear cells (PBMC) were isolated from the peripheral blood of normal healthy persons by specific gravity centrifugation using Ficoll/Paque (Pharmacia Biotech Inc., Piscataway, N.J.). Unfractionated mononuclear cells were separated using the E-rosette positive (E^+) method and used as unstimulated T cells. The mononuclear cells were adhered to a plastic plate for 24 hours at 37° C., and then removed by culturing for one hour in 5 mM L-leucine methyl ester HCL (Sigma Chemical Co.) solution. […] The cells were stimulated for eight hours with 1 μCi ^3H-thymidine (ICN Radiochemicals, Irvine, Calif.) per well, recovered on a glass fiber filter (Wallac, Turku, Finland) to quantify the incorporated radioactivity with a liquid scintillation counter (Wallac)."}, "VCAM-1": {"tested_on": "VCAM-1", "details": "for cell fluorescence intensity, VCAM-1: endothelial cells"}, "[2]": {"details": "in vivo; cited from earlier work"}, "Cas-L": {"tested_on": "Cas-L", "details": "PHA-stimulated T cells; 0.1 μM to 1.0 μM; dose dependent"}, "[3]": {"tested_on": "histamine-induced contraction in trachea samples", "details": "trachea samples excised from guinea pigs; read-out: IC50 of the effects on histamine-induced contraction; cited from earlier work"}},
  "note": "Where two headings read alike, the source gives them in different places.",
  "data": [
    {"smiles": "CC(C)(C)c1ccc(C(=O)CCCN2CCC(OC(c3ccccc3)c3ccccc3)CC2)cc1", "note": "[ebastine, 4-diphenylmethoxy-1[3-(4-terbutyl-benzoyl)-propyl]piperidine]", "values": [
      {"measurement": "cell fluorescence intensity, CD25", "setting": "CD25; Ebastine concentration 1 μM", "value": "18.3 ± 0.35: N.S."},
      {"measurement": "cell fluorescence intensity, CD25", "setting": "CD25; Ebastine concentration 5 μM", "value": "16.5 ± 0.26: **"},
      {"measurement": "expression level of CD25", "setting": "CD25; after treatment with ebastine", "value": "completely unaffected"},
      {"measurement": "decrease of expression level of CD29", "setting": "CD29; 5 μM", "value": "~21", "unit": "%"},
      {"measurement": "cell fluorescence intensity, CD29", "setting": "CD29; Ebastine concentration 1 μM", "value": "25.0 ± 0.26: *"},
      {"measurement": "cell fluorescence intensity, CD29", "setting": "CD29; Ebastine concentration 5 μM", "value": "22.1 ± 0.36: ***"},
      {"measurement": "tyrosine phosphorylation of FAK", "setting": "FAK", "value": "slightly suppress"},
      {"measurement": "cell fluorescence intensity, CD3", "setting": "CD3; Ebastine concentration 1 μM", "value": "10.6 ± 0.2: N.S."},
      {"measurement": "cell fluorescence intensity, CD3", "setting": "CD3; Ebastine concentration 5 μM", "value": "10.9 ± 0.26: N.S."},
      {"measurement": "expression level of CD3", "setting": "CD3; after treatment with ebastine", "value": "completely unaffected"},
      {"measurement": "decrease of expression level of CD47", "setting": "CD47; 5 μM", "value": "~31", "unit": "%"},
      {"measurement": "cell fluorescence intensity, CD47", "setting": "CD47; Ebastine concentration 1 μM", "value": "11.4 ± 0.17: **"},
      {"measurement": "cell fluorescence intensity, CD47", "setting": "CD47; Ebastine concentration 5 μM", "value": "10.0 ± 0.26: ***"},
      {"measurement": "effect on fluorescence intensity of ICAM-1", "setting": "ICAM-1; endothelial cell membrane", "value": "no effect"},
      {"measurement": "cell fluorescence intensity, ICAM-1", "setting": "ICAM-1; Ebastine concentration 1 μM", "value": "20.7 ± 0.52"},
      {"measurement": "cell fluorescence intensity, ICAM-1", "setting": "ICAM-1; Ebastine concentration 5 μM", "value": "20.4 ± 0.26"},
      {"measurement": "inhibition of IL-5 production", "setting": "[1]", "value": "≥ 50", "unit": "%"},
      {"measurement": "concentration at which inhibition of T cell migration reached a plateau level", "setting": "PHA-stimulated T cells", "value": 5, "unit": "µM"},
      {"measurement": "effect on T cell migration via ECV cells", "setting": "PHA-stimulated T cells; ECV cells pretreated 48 hours, washed, then exposed to T cells, up to 10 μM", "value": "did not show effect"},
      {"measurement": "effect on T cell migration", "setting": "PHA-stimulated T cells; compound present during migration, eight hours, ECV304 monolayer", "value": "markedly inhibited"},
      {"measurement": "inhibition of T cell proliferation", "setting": "T cells; 20 μM to 50 μM, in a certain donor", "value": "~100", "unit": "%"},
      {"measurement": "effect on T cell proliferation", "setting": "T cells; stimulation on CD3 combined with CD26, CD28 or PMA, all concentrations used", "value": "clearly inhibited"},
      {"measurement": "effect on fluorescence intensity of VCAM-1", "setting": "VCAM-1; endothelial cell membrane", "value": "no effect"},
      {"measurement": "cell fluorescence intensity, VCAM-1", "setting": "VCAM-1; Ebastine concentration 1 μM", "value": 0.3},
      {"measurement": "cell fluorescence intensity, VCAM-1", "setting": "VCAM-1; Ebastine concentration 5 μM", "value": 0.3},
      {"measurement": "maximum blood concentration", "setting": "[2]", "value": 0.03, "unit": "µM"},
      {"measurement": "cell fluorescence intensity, CD11a", "setting": "CD11a; Ebastine concentration 1 μM", "value": "53.8 ± 0.44: N.S."},
      {"measurement": "cell fluorescence intensity, CD11a", "setting": "CD11a; Ebastine concentration 5 μM", "value": "53.9 ± 0.4: N.S."},
      {"measurement": "expression level of CD11a", "setting": "CD11a; after treatment with ebastine", "value": "completely unaffected"},
      {"measurement": "tyrosine phosphorylation of Cas-L", "setting": "Cas-L", "value": "suppress"},
      {"measurement": "cell fluorescence intensity, CD44", "setting": "CD44; Ebastine concentration 1 μM", "value": "47.6 ± 0.30: N.S."},
      {"measurement": "cell fluorescence intensity, CD44", "setting": "CD44; Ebastine concentration 5 μM", "value": "47.9 ± 0.36: N.S."},
      {"measurement": "expression level of CD44", "setting": "CD44; after treatment with ebastine", "value": "completely unaffected"},
      {"measurement": "decrease of expression level of CD26", "setting": "CD26; 5 μM", "value": "approximately 14%"},
      {"measurement": "cell fluorescence intensity, CD26", "setting": "CD26; Ebastine concentration 1 μM", "value": "99.1 ± 0.36: **"},
      {"measurement": "cell fluorescence intensity, CD26", "setting": "CD26; Ebastine concentration 5 μM", "value": "87.8 ± 0.36: ***"},
      {"measurement": "IC50", "setting": "[3]", "value": "> 10", "unit": "µM"}
    ]}
  ]
}
